Taken from: PubChem BioAssay AID1224830 (NIAID, 2016)
The deposit covers about 18,000 reagents; this is a part drawn at random. In the full data, about 2,900 (16%) got an active call. 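Calls are made per well; low scores hint the gene aids the LPS response, high scores that it dampens it.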 Unmarked entries are inactive. Repeated entries: four replicate wells of each siRNA pool.

- Screen: 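Host factors that control LPS-induced TNF expression in human macrophages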 (primary screen)
- System: human THP-1 monocytic leukaemia cells, TNF dual-luciferase reporter clone, PMA-differentiated to macrophage-like cells
- Knock-down reagent: siRNA pool against human genes, 50 nM
- Timing: LPS for 4 h, given about 3 days after siRNA transfection
- Treatment: bacterial LPS (TLR4 ligand), 10 ng/ml
- Measured: 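TNF firefly reporter luminescence divided by renilla, normalised to the plate median, then turned into a robust z-score for each replicate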
- Scale: TNF reporter robust z-score: higher = stronger TNF reporter response to LPS
- Active means: 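Each well counts as active if its z-score is over 2.8 or under -1.5; controls are left without a call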

| gene knocked down | TNF reporter robust z-score |
| --- | --- |
| UBR7 (ubiquitin protein ligase E3 component n-recognin 7) | 0.53 |
| UBR7 (ubiquitin protein ligase E3 component n-recognin 7) | 0.42 |
| UBR7 (ubiquitin protein ligase E3 component n-recognin 7) | 0.69 |
| UBR7 (ubiquitin protein ligase E3 component n-recognin 7) | 0.67 |
| PLXNA4 (plexin A4) | -0.58 |
| PLXNA4 (plexin A4) | 0.44 |
| PLXNA4 (plexin A4) | 0.51 |
| PLXNA4 (plexin A4) | 0.39 |
| PLXNA4 (plexin A4) | 3.42 (active) |
| PLXNA4 (plexin A4) | 1.44 |
| PLXNA4 (plexin A4) | 1.22 |
| PLXNA4 (plexin A4) | 0.47 |
| ECD (ecdysoneless cell cycle regulator) | -1.38 |
| ECD (ecdysoneless cell cycle regulator) | -0.59 |
| ECD (ecdysoneless cell cycle regulator) | -0.55 |
| ECD (ecdysoneless cell cycle regulator) | -0.65 |
| RAX2 (retina and anterior neural fold homeobox 2) | 0.66 |
| RAX2 (retina and anterior neural fold homeobox 2) | 2.83 (active) |
| RAX2 (retina and anterior neural fold homeobox 2) | 1.45 |
| RAX2 (retina and anterior neural fold homeobox 2) | 1.25 |
| TNFSF4 (TNF superfamily member 4) | 2.1 |
| TNFSF4 (TNF superfamily member 4) | 1.33 |
| TNFSF4 (TNF superfamily member 4) | 4.51 (active) |
| TNFSF4 (TNF superfamily member 4) | 3.63 (active) |
| VPS8 (VPS8 subunit of CORVET complex) | -1.05 |
| VPS8 (VPS8 subunit of CORVET complex) | 0.53 |
| VPS8 (VPS8 subunit of CORVET complex) | 0.8 |
| VPS8 (VPS8 subunit of CORVET complex) | -0.96 |
| POLDIP3 (DNA polymerase delta interacting protein 3) | -0.58 |
| POLDIP3 (DNA polymerase delta interacting protein 3) | -0.84 |
| POLDIP3 (DNA polymerase delta interacting protein 3) | -1.07 |
| POLDIP3 (DNA polymerase delta interacting protein 3) | -0.53 |
| H2BC14 (H2B clustered histone 14) | -0.68 |
| H2BC14 (H2B clustered histone 14) | -0.85 |
| H2BC14 (H2B clustered histone 14) | -0.98 |
| H2BC14 (H2B clustered histone 14) | -0.92 |
| HSD17B10 (hydroxysteroid 17-beta dehydrogenase 10) | 1.32 |
| HSD17B10 (hydroxysteroid 17-beta dehydrogenase 10) | 1.29 |
| HSD17B10 (hydroxysteroid 17-beta dehydrogenase 10) | 1.11 |
| HSD17B10 (hydroxysteroid 17-beta dehydrogenase 10) | 0.85 |
| PRRT2 (proline rich transmembrane protein 2) | -1.1 |
| PRRT2 (proline rich transmembrane protein 2) | -0.28 |
| PRRT2 (proline rich transmembrane protein 2) | -1.54 (active) |
| PRRT2 (proline rich transmembrane protein 2) | -0.72 |
| F2 (coagulation factor II, thrombin) | 1 |
| F2 (coagulation factor II, thrombin) | 1.24 |
| F2 (coagulation factor II, thrombin) | 1.05 |
| F2 (coagulation factor II, thrombin) | 0.21 |
